From patent US9931760B2, “Functionalized polyorganosiloxanes or silanes for the treatment of lignocellulosic materials” (Momentive Performance Materials GmbH, priority 2011, dated 2018) come the findings set out here.

A short description of series [1]: Bulking and swelling-shrinkage efficiency (ASE) of treated wood.
Series [2] can be described thus: Weight increase (Weight Percent Gain) of wood by the treatment.
A short description of series [3]: Water absorption of treated wood samples immersed in water (weight gain after 2, 4, 6 and 24 hours).

On to `CCC[Si](OC(C)=O)(OC(C)=O)OC(C)=O` [Example 2, propyltriacetoxysilane], for which, in series [1] (in average, compared to the untreated reference), the “swelling-shrinkage efficiency (ASE)” value is listed as “about 50%”. Further, the “cross-sectional area increase (bulking)” value in series [1] (pine splint and beech, 30 wt-% in acetic acid, 5 hours at 120° C.) was determined as 7%. In addition, the “average weight increase in the kiln dry state” value in series [2] (based on the initial weights of the 10 samples) is reported as “about 14 wt-%”. Further, the “water absorption after 24 hours lower compared to the control” value in series [3] (pine splint and beech, 30 wt-% in acetic acid, 5 hours at 120° C., after 24 hours) is “approximately 25%”.
As to `CCC[Si](OC(C)=O)(OC(C)=O)OC(C)=O` [Example 3, propyltriacetoxysilane], the “percentage weight increase relating to the initial weight” value in series [2] (in average, kiln dried, after storage or immersion in water) is on record as “approximately 68%”. In addition, in series [3] (pine splint and beech, after 24 hours), the “reduced water absorption after 24 hours compared to untreated reference” value is “about 70 wt-%”.
In the case of `CC(=O)OC(C)=O` [Example 4, acetic anhydride, reference compound], the “reduction of water absorption after 24 hours, 4th water absorption” value in series [3] (4th water absorption, pine splint, compared to control) is listed as −34.9%. The “water absorption [%] 1. (reduction of water absorption after 24 hours, first water absorption)” value in series [3] (first water absorption, after 24 hours, compared to untreated control) was −12.8%.
